According to patent US20250361488A1:
Results are given in words; binding and its absence hold for the method and conditions named. Some results given as binding are weak or reduced against the parent protein; the word gives no strength.

B1: PSGL-1 expressed on engineered MSCs together with FUT7 (ligand, UniProt Q14242 42-412, looked up)
chain: QATEYEYLDYDFLPETEPPEMLRNSTDTTPLTGPGTPESTTVEPAARRSTGLDAGGAVTELTTELANMGNLSTDSAAMEIQTTQPAATEAQTTQPVPTEAQTTPLAATEAQTTRLTATEAQTTPLAATEAQTTPPAATEAQTTQPTGLEAQTTAPAAMEAQTTAPAAMEAQTTPPAAMEAQTTQTTAMEAQTTAPEATEAQTTQPTATEAQTTPLAAMEALSTEPSATEALSMEPTTKRGLFIPFSVSSVTHKGIPMAASNLSVNYPVGAPDHISVKQCLLAILILALVATIFFVCTVVLAVRLSRKGHMYPVRNYSPTEMVCISSLLPDGGEGPSATANGGLSKAKSPGLTPEPREDREGDDLTLHSFLP
B2: PSGL-1 expressed on engineered MSCs together with FUT7 and ST3GAL4 (ligand, UniProt Q14242 42-412, looked up)
chain: B1 chain
modifications: sialic acid added post-translationally by ST3GAL4 (sites not given)

Tests used:
recombinant E-selectin [1] = molecular target: T1, recombinant E-selectin (UniProt P16581); assay: in vitro cell adhesion assay, engineered MSCs on recombinant P&E selectin (FIG. 7)
T1 sequence (looked up): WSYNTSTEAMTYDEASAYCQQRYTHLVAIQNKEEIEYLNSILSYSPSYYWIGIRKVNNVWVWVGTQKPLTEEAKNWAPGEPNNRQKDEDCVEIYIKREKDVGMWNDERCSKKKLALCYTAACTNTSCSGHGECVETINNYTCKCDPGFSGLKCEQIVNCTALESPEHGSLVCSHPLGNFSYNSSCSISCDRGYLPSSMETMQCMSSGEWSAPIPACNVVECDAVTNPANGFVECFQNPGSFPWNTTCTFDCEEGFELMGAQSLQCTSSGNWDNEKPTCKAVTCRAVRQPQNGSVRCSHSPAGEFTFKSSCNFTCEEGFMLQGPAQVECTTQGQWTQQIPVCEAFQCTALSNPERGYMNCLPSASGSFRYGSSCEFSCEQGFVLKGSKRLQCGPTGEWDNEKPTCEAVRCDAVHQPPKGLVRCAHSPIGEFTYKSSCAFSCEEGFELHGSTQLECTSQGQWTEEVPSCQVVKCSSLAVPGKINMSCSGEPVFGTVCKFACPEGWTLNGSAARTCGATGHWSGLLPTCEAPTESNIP

recombinant E-selectin [2] = molecular target: T1, recombinant E-selectin; assay: in vitro cell adhesion assay, engineered MSCs on P&E selectin (FIG. 7 bar graph)
recombinant E-selectin [3] = molecular target: T1, recombinant E-selectin; assay: in vitro cell adhesion assay of engineered MSCs (FIG. 49D); substrate taken from the next sentence (P and E selectin)

Row | Binder | binding (recombinant E-selectin [1]) | binding (recombinant E-selectin [2]) | binding (recombinant E-selectin [3])
1 | B1 | binds | binds | –
2 | B2 | – | – | binds
